Results from paper PMC7695847, “The structural basis of promiscuity in small multidrug resistance transporters” (Nature Communications, 2020).

System: T1, Gdx-Clo
T1 construct: gene HMPREF1982_00479; full-length; C-terminal His6 tag with LysC site, tag cleaved by LysC; expressed in E. coli C41(DE3); antiparallel homodimer
Test: X-ray crystal structure of complex
Format: binding, Clostridiales bacterium oral taxon 876
Conditions: co-crystallised with monobody Clo-L10

Row | Structure (SMILES) | X-ray crystal structure of complex (pH 7.5, near E13B, tail in TM2 membrane portal) | X-ray crystal structure of complex (2.5 Å, pH 8.8, near E13, also a transported substrate)
1 | CCCCCCCCNC(=N)N [octylGdm^+] | we solved a structure of Gdx-Clo in complex with octylGdm^+ | –
2 | N=C(N)Nc1ccccc1 [phenylGdm^+] | – | we solved a structure of the Gdx-Clo/L10 monobody complex together with a non-natural transported substrate, phenylGdm^+
